In the supplement of paper PMC3334620:
Over roughly 33,000 sequences, “E-score (-0.5 to 0.5)” has its median near -0.0014; the highest 2% begin near 0.25. The list shows a part of the results.

Target: T1, Cad1 (UniProt P24813)
T1 sequence: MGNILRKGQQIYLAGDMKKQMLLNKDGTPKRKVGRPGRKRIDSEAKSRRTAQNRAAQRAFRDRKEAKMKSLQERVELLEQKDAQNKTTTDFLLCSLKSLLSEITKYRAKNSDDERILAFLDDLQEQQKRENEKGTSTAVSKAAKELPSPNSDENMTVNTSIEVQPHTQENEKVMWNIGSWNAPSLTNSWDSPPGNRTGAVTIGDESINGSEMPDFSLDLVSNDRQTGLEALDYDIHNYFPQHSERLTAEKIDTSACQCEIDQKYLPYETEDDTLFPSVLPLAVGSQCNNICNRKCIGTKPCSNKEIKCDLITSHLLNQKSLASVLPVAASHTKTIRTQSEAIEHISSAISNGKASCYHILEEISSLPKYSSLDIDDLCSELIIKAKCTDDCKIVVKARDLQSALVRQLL
Experiment: PBM E-score (8-mer binding enrichment) (E-score (-0.5 to 0.5)); higher = stronger / more preferred TF binding
Settings: protein concentration: 100 nM; construct: GST-full length
How it was run: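 Yeast transcription factors, full-length or as DNA-binding domains, were expressed with a GST tag using PURExpress in vitro transcription/translation. At about 100-200 nM they were applied to universal all-10-mer Agilent arrays, double-stranded by primer extension on fresh or once-stripped slides. Fluorescent anti-GST detected bound protein, and masliner normalised the scans. E-scores for ungapped eight-base words, pooled with reverse complements, came from the Universal PBM Analysis Suite.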

Sequence	PBM E-score
ATCGGGTC	0.0992
CAGCACTC	0.0324
GGACTGCC	-0.0722
ATTAGCAC	0.0946
CTACCCCC	-0.444
GAGCCGCA	0.00295
CCGACCGA	-0.179
TCGCGGAA	-0.0387
GAATCTGC	0.014
GGACTATA	0.0747
AGGTACCG	0.0602
CGAATTGC	0.0993
GAGCTTGC	-0.048
ACAATTGG	-0.0197
AACATTTC	0.101
AAGTAGCC	-0.208
GACGTGGA	0.0437
AGAGAGAC	-0.258
GCGAATTA	0.176
CTTGCGTC	-0.00633
TAAAAGGA	-0.0572
GGTAATCA	0.203
CCGACTCC	-0.0257
AAAGAAGC	0.0936

Sequence	PBM E-score
CCTCCTTC	-0.165
CCAAGCGC	0.166
AAATCCAT	0.234
AGCTACAG	-0.286
ATGTGAAT	0.133
AGTTTACA	0.0849
ACAGCGCA	0.0437
ATCCGGCG	0.169
ATACGGAT	0.102
AAGATCAT	0.00621
CTAAGTTA	-0.0283
CCTCTGAC	-0.0669
CGAGCCAC	-0.191
CAACAACC	0.053
CGCGCAAG	0.217
TCCTCAGA	-0.108
ACATTTTG	0.133
ACGGTGTG	0.0119
CCGAATAA	0.172
CCACAAAG	0.0271
ACCCACAT	0.00823
GTACGCTA	0.0478
ACAGAAGA	0.0872
AGAATCCG	0.163

Sequence	PBM E-score
AATCTTCT	-0.118
TCGGGAGA	-0.0809
CAAGGAGG	0.0058
CTGTCTTA	0.0654
AGACACGG	0.0215
CGACTAGC	0.0526
ATGCCCCA	-0.0857
AGCCGAGA	-0.0623
GGCACCCC	-0.243
AACATCTG	-0.0437
CTGTGACA	0.209
CCGCTGCA	0.0759
ATCAGGAA	0.0741
ATAGACGC	0.119
CTGCGAAG	-0.2
AACAGAGC	-0.167
CAGGCCCC	-0.277
CATTCCGG	0.00395
CCAATATA	-0.0928
GCCATTAC	0.0311
AGGGCTTC	-0.114
ATCAAGAT	0.0653
GGCCGATA	-0.0403
ACCTATCG	0.081

Sequence	PBM E-score
ATGGCTTA	0.144
TTCACGAA	0.00862
ACAAGGGG	-0.219
TACTTTAA	-0.165
AAGCTAGG	-0.046
CAGCAATA	0.188
CCCCAGTC	-0.273
GCTATAGC	-0.23
AATAAGCT	0.234
ACCACCAT	-0.135
GCTTGTTA	0.0383
GCCCTTTA	-0.279
CGTCTTGC	-0.0811
GATTTAAA	-0.0737
AGGGGATG	-0.0803
AGATGCCG	-0.0943
AAGTAGGC	0.0519
ACGATGGA	0.042
GACTAGCC	-0.139
ACCGCGAG	-0.00282
TTAGTAAA	0.339
CGGCCCAA	-0.111

An excerpt of these results, with each value named.
ATGGCTTA
  PBM E-score: 0.144
AATAAGCT
  PBM E-score: 0.234
GACTAGCC
  PBM E-score: -0.139
